Results from the supplement of paper PMC10849652.
The other results are listed elsewhere or left out.

Sequences of proteins named here, by UniProt entry; tags and fusion partners are left off. A change or cut given only in a name is not applied to a line headed by its entry.
UniProt A8MXV4: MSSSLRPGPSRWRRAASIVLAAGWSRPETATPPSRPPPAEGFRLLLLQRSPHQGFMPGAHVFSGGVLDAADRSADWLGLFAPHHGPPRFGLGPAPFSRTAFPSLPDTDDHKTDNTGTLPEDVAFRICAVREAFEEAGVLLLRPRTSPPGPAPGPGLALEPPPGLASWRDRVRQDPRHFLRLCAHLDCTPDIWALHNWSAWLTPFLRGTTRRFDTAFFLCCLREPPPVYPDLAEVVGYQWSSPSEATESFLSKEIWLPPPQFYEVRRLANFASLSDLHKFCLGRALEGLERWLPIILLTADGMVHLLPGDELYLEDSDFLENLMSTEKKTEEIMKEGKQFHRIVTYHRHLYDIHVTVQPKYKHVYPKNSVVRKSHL
UniProt P11940, whole entry, looked up: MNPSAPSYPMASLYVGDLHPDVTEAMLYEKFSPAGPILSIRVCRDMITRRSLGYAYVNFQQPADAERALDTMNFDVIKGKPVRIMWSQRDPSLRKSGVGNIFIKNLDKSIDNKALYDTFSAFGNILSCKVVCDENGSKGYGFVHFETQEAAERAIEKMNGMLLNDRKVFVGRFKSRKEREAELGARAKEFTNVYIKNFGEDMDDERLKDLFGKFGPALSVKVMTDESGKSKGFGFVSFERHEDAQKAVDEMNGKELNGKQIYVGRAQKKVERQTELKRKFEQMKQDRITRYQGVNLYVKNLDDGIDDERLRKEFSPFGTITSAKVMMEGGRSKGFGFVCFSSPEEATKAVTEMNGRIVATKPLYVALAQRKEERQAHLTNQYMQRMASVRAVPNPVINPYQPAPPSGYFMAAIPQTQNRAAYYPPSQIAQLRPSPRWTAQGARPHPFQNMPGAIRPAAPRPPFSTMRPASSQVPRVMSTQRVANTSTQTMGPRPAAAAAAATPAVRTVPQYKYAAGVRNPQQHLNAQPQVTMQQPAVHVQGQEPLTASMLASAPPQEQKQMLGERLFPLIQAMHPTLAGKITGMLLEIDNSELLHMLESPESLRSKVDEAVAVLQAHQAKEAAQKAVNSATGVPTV
UniProt P49790, whole entry, looked up: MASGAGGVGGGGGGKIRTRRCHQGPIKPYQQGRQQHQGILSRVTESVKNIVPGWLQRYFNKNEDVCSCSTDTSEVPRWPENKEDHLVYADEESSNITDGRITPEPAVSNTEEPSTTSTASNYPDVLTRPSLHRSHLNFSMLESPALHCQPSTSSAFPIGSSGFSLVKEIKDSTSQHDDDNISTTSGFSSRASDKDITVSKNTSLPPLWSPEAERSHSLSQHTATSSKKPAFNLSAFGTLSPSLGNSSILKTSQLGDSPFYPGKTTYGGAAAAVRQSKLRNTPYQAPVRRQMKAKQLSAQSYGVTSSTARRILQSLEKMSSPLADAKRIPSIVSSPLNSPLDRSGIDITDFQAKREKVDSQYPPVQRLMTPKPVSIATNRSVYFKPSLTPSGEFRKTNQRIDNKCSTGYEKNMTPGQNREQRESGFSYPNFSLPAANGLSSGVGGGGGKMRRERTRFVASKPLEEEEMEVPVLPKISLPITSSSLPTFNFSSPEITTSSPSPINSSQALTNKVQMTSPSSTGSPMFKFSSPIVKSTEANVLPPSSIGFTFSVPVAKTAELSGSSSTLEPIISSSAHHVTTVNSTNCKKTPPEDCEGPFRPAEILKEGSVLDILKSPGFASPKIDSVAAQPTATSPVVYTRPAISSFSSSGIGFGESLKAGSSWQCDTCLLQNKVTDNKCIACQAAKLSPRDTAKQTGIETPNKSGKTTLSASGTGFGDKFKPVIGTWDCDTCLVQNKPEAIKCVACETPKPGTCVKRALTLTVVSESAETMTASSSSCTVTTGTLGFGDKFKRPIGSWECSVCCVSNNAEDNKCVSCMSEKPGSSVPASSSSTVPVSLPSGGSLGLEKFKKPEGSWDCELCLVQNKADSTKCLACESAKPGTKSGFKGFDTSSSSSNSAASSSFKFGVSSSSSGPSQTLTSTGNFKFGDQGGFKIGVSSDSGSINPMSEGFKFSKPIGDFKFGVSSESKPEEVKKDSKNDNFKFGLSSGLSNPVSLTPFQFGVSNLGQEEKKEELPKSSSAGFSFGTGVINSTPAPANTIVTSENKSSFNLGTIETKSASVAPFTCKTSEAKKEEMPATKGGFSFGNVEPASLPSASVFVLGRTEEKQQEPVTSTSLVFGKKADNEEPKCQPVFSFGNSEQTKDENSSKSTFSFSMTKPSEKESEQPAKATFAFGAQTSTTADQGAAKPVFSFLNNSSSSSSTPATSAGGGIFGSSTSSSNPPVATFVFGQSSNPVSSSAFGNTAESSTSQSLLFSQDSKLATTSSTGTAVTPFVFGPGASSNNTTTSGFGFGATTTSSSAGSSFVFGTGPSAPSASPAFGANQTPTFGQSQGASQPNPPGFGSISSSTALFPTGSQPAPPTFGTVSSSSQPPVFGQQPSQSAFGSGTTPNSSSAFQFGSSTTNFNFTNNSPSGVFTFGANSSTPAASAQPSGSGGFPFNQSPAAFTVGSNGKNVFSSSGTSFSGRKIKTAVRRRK
UniProt P13674: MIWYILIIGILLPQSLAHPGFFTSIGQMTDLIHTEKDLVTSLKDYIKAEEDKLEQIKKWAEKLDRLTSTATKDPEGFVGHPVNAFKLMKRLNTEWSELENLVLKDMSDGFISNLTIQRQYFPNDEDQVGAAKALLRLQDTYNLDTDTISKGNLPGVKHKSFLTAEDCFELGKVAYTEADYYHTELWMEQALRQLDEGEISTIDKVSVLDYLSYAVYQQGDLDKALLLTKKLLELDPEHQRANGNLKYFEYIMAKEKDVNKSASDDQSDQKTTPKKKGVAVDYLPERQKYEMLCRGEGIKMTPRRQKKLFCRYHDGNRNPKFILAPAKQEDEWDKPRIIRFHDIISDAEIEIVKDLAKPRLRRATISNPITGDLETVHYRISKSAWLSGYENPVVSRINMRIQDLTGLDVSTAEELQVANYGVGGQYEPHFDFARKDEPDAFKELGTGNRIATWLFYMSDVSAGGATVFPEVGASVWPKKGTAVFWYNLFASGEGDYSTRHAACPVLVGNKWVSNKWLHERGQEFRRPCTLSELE
UniProt Q96FW1, whole entry, looked up: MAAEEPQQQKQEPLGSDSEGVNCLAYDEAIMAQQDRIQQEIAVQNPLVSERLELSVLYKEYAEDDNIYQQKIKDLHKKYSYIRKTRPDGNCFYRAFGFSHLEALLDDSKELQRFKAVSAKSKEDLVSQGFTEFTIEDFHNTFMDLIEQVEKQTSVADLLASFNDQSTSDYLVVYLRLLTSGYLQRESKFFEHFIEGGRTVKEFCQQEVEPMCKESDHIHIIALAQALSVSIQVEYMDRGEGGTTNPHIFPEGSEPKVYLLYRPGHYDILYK
UniProt Q32P28: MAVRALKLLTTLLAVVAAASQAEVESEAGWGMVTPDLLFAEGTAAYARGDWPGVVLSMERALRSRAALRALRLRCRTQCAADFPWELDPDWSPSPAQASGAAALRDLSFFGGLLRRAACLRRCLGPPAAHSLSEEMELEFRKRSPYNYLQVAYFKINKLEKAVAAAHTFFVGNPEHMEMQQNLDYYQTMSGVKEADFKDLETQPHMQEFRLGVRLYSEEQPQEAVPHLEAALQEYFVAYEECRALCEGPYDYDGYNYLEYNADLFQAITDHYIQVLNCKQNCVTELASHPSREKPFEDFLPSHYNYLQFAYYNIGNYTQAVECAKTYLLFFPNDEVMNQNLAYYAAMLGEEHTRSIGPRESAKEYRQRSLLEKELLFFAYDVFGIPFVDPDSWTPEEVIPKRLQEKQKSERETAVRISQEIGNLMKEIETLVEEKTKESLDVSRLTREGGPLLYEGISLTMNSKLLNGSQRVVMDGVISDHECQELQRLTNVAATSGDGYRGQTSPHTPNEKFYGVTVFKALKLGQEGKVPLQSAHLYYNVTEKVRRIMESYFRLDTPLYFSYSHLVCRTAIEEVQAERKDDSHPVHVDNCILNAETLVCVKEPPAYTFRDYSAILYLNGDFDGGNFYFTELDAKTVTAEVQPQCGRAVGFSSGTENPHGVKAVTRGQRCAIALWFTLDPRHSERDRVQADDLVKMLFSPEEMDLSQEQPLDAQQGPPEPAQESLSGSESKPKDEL
UniProt Q92882: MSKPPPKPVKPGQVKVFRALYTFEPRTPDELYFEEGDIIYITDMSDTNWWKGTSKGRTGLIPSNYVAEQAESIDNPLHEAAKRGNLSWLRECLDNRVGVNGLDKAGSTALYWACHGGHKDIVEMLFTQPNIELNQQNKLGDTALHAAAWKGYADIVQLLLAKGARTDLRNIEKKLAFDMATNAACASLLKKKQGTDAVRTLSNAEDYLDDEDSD
UniProt Q9NZJ9: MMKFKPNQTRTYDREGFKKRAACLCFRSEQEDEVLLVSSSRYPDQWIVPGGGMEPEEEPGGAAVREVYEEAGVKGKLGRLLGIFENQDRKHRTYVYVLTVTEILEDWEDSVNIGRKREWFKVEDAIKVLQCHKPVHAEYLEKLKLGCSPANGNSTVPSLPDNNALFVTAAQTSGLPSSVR
UniProt Q9BXS6: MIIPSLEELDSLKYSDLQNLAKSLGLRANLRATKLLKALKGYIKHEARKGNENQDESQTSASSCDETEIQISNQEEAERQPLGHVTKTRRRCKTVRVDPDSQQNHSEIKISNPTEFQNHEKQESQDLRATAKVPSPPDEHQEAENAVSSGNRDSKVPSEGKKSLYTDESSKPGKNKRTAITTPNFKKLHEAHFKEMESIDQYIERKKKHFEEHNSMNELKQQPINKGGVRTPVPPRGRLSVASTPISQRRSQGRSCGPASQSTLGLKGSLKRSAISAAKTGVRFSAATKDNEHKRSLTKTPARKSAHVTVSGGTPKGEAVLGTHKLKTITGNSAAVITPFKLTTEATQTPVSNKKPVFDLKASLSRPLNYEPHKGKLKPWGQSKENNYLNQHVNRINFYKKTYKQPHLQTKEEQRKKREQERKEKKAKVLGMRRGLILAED
UniProt Q9Y5Y2: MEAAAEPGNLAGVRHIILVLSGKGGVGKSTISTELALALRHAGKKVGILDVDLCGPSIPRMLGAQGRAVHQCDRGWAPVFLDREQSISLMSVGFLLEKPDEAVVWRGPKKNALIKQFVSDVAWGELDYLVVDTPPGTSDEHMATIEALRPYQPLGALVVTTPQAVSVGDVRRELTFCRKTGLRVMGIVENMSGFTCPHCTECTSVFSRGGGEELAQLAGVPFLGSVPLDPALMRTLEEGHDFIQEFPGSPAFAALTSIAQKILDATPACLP
UniProt Q96E22: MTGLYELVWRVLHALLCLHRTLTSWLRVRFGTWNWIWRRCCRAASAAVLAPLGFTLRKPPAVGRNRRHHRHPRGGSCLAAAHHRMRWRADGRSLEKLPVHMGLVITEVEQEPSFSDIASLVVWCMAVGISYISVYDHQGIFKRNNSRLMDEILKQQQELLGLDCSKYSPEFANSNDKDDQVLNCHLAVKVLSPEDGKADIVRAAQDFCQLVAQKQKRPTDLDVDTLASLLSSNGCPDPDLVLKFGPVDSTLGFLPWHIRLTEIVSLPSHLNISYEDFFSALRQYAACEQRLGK
UniProt O15504: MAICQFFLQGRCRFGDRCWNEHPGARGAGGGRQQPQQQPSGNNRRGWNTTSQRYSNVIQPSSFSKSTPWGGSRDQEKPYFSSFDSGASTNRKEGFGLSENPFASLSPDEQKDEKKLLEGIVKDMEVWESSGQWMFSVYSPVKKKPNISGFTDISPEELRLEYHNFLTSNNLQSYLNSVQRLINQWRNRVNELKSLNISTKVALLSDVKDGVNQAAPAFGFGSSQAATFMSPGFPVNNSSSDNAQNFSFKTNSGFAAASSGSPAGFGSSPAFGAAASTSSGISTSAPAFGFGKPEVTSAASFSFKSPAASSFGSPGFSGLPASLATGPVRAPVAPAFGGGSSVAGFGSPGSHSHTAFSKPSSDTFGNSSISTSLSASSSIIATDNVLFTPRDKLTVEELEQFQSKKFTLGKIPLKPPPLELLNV
UniProt Q9H857: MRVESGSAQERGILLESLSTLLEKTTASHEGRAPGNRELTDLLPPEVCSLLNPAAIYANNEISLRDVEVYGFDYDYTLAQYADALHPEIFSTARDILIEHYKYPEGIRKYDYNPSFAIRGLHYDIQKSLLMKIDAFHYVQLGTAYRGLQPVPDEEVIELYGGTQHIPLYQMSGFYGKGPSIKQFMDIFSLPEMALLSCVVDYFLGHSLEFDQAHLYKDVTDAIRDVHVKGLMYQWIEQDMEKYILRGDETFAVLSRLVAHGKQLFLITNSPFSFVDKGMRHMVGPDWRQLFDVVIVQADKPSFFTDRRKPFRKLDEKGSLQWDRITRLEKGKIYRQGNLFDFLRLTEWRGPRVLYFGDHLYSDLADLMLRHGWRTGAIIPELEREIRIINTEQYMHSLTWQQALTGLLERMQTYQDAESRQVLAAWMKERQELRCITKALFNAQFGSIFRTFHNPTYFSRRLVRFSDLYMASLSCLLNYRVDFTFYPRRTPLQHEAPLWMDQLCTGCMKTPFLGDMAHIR
UniProt P61970, whole entry, looked up: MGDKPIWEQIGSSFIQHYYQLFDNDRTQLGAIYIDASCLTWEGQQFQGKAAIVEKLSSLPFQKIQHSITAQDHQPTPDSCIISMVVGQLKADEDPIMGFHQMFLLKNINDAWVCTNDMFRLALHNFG

Compound: Cc1ccc(C(=O)N(CCCN)[C@@H](c2nc3cc(Cl)ccc3c(=O)n2Cc2ccccc2)C(C)C)cc1 [ispinesib]
Experiment: log2 fold change, soluble protein after heating vs DMSO (PISA); higher = thermal stabilisation; K562 cells, 10 uM, 30 min; active = over 0.2 and 3.5 SD of the protein, either way, in both replicates (recomputed)
How it was run: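 K562 cells at 2×10^6 cells/mL were treated with 10 μM compound for 30 min. Aliquots were heated for 3 min across 48°C-58°C, pooled, and extracted in PBS with 0.5% NP-40 at 4°C; soluble protein was the supernatant after 21,000xg for 90 min. Soluble protein was quantified by TMTpro 16plex LC-MS/MS with channel sums equalised, and reported as log2 fold change in thermal stability against DMSO controls, with values from duplicates.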

Target | log2 fold change
NT5C2 (UniProt P49902) | inactive: 0.02
ORC4 (UniProt O43929) | inactive: 0.006
NUDT16L1 (UniProt Q9BRJ7) | inactive: 0.067
OS9 (UniProt Q13438) | inactive: -0.062
NUDT19 (UniProt A8MXV4) | inactive: 0.15
PABPC1 (UniProt P11940) | inactive: -0.112
NT5DC3 (UniProt Q86UY8) | inactive: 0.096
NUP37 (UniProt Q8NFH4) | inactive: 0.068
OPTN (UniProt Q96CV9) | inactive: 0.04
NUP43 (UniProt Q8NFH3) | inactive: 0.056
OTUD7B (UniProt Q6GQQ9) | inactive: 0.156
NSUN6 (UniProt Q8TEA1) | inactive: -0.001
NUP153 (UniProt P49790) | inactive: -0.013
P4HA1 (UniProt P13674) | inactive: -0.029
OTUB1 (UniProt Q96FW1) | inactive: 0.082
P3H1 (UniProt Q32P28) | inactive: -0.025

Looked up above:
log2 fold change, OPTN (UniProt Q96CV9) is entered as inactive: 0.04
log2 fold change, OTUB1 (UniProt Q96FW1) is entered as inactive: 0.082

Next part

Target | log2 fold change
NUP88 (UniProt Q99567) | inactive: 0.053
OSTF1 (UniProt Q92882) | inactive: 0.009
NUDT4 (UniProt Q9NZJ9) | inactive: -0.016
NUSAP1 (UniProt Q9BXS6) | inactive: -0.063
OIP5 (UniProt O43482) | inactive: -0.007
OLA1 (UniProt Q9NTK5) | inactive: 0.036
NUB1 (UniProt Q9Y5A7) | inactive: -0.098
NUBP2 (UniProt Q9Y5Y2) | inactive: 0.005
NUS1 (UniProt Q96E22) | inactive: 0.043
NUBPL (UniProt Q8TB37) | inactive: -0.016
NUP42 (UniProt O15504) | inactive: -0.167
OGDH (UniProt Q02218) | inactive: -0.137
P4HA1 isoform 2 (UniProt P13674) | inactive: -0.014
NT5DC2 isoform 2 (UniProt Q9H857) | inactive: 0.076
NUTF2 (UniProt P61970) | inactive: 0.128
